These are yes or no findings as the source states them, for the method shown. Binding seen in cells or lysates may run through a third protein. Binding can be weak; no strength is given. Where a sequence is shown, tags or fusion partners need not be part of it.
Molecular target: T1, 3xFLAG-Ref(2)P (Drosophila) (UniProt P14199)
T1 sequence: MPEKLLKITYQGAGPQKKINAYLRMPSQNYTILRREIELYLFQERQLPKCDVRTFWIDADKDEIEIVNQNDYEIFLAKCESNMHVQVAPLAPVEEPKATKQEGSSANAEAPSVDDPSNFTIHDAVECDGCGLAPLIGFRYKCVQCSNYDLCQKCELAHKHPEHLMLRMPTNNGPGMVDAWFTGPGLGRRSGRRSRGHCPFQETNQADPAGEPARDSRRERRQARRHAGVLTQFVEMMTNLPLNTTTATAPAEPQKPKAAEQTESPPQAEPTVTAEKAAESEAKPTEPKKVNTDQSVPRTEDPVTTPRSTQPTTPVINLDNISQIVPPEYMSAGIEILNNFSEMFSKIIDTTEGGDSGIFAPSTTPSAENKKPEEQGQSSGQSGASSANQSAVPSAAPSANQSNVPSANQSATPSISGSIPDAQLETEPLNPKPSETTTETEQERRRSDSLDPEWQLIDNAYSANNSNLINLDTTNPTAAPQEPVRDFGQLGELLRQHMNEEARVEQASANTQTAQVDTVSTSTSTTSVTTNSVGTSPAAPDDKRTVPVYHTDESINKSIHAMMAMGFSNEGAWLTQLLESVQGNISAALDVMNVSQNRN
Assay: co-IP; two tagged proteins (3xHA and 3xFLAG) co-expressed in D.Mel-2 cells from UAS plasmids with mt-Gal4; anti-tag immunoprecipitation, western blot

## 3xHA-Atg18 (Drosophila)
  binding: binds

Reference: article PMC3928829
